According to paper PMC12500468:
Results are given in words; binding and its absence hold for the method and conditions named. Binding seen in cells or lysates may run through a third protein. Here binding means that the protein was enriched with, or labelled near, the bait; the list need not be complete. Tags and fused reporters may be left off the sequences shown. Each block holds one molecule with its values, some of them ahead of it.

The chains behind the UniProt entries cited, without tags or fusion partners.
UniProt P46934: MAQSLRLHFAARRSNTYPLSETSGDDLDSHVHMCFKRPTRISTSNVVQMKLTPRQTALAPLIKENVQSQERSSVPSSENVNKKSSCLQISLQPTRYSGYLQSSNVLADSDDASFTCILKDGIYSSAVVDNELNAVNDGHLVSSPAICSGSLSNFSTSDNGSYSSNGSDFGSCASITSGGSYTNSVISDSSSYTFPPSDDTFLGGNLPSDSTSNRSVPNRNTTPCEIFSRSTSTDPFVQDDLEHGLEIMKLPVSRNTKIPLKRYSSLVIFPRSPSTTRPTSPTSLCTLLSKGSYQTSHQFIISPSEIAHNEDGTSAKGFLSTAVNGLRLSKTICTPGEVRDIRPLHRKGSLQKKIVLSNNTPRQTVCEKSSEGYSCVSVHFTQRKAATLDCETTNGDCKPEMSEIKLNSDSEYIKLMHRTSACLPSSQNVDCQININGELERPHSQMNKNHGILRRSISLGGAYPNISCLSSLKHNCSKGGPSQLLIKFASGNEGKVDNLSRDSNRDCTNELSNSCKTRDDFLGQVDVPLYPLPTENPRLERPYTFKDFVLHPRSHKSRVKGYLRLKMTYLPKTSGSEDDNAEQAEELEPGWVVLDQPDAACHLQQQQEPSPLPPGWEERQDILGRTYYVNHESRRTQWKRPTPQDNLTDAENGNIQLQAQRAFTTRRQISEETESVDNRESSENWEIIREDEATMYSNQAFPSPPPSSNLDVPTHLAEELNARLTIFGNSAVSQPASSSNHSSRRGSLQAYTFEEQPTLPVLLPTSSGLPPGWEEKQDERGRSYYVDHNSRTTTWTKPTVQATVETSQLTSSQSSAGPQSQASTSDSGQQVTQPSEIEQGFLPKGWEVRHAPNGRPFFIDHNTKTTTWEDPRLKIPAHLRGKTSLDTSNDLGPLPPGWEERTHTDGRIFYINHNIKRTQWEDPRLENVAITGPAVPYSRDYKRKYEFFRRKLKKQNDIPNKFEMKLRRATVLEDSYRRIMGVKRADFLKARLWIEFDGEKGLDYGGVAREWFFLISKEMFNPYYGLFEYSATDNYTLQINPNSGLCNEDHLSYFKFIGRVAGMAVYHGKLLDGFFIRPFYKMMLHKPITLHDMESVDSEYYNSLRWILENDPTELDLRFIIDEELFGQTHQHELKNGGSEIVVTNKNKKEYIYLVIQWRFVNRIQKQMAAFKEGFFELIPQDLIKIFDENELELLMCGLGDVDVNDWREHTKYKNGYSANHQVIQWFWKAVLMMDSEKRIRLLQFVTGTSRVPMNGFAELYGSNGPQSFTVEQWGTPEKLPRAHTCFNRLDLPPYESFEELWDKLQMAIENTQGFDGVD
UniProt Q9NT62: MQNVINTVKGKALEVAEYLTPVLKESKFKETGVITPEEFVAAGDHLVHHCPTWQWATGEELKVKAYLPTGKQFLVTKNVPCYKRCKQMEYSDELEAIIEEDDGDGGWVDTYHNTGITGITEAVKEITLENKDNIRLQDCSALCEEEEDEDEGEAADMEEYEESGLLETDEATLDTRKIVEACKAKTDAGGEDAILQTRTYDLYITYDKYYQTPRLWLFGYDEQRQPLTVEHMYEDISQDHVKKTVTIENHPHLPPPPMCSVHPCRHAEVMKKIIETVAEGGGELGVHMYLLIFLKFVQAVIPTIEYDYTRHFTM
UniProt O95817: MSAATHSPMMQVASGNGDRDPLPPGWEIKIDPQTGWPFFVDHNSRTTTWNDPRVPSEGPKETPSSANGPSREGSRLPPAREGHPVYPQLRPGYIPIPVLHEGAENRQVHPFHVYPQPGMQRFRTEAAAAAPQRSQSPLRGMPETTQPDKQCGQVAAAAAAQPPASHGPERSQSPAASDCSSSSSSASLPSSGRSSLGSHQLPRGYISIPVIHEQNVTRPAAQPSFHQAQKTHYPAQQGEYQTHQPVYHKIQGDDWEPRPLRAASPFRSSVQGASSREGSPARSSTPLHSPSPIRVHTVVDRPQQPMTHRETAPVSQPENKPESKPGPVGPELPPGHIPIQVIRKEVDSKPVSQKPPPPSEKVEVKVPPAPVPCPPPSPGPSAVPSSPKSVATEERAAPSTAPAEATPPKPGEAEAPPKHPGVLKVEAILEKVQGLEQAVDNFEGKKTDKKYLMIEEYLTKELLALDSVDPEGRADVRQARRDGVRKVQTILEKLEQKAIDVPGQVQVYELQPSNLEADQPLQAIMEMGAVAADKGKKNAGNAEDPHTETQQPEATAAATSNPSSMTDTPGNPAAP
UniProt P46379: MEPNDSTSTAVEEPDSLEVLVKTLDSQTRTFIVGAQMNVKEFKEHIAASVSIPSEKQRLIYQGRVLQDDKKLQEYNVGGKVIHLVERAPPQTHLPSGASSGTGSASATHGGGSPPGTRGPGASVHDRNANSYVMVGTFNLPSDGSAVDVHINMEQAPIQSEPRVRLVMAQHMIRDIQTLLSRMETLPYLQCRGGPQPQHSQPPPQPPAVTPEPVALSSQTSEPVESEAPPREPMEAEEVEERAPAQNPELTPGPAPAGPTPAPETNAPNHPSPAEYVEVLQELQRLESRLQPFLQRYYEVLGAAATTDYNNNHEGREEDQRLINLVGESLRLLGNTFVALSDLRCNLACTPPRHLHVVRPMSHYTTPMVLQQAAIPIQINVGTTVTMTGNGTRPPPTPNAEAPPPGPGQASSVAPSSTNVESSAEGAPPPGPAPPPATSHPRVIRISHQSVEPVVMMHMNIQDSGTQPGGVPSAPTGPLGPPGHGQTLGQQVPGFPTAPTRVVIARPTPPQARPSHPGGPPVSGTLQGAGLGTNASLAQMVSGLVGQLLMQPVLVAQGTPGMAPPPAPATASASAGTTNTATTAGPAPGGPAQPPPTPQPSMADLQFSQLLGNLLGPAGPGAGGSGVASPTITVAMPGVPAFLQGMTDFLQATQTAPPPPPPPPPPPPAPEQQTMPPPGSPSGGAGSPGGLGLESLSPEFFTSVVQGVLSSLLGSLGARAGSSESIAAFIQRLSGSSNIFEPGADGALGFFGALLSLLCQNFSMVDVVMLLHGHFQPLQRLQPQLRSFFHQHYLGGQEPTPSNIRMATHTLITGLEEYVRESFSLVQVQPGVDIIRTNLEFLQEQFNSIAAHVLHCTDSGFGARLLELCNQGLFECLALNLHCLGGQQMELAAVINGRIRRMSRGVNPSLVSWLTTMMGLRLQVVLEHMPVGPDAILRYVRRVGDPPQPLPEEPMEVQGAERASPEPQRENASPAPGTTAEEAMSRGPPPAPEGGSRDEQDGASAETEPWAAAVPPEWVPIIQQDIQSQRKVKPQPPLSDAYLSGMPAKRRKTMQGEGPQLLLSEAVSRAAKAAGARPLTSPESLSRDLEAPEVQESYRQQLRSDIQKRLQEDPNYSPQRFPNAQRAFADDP
UniProt Q13200: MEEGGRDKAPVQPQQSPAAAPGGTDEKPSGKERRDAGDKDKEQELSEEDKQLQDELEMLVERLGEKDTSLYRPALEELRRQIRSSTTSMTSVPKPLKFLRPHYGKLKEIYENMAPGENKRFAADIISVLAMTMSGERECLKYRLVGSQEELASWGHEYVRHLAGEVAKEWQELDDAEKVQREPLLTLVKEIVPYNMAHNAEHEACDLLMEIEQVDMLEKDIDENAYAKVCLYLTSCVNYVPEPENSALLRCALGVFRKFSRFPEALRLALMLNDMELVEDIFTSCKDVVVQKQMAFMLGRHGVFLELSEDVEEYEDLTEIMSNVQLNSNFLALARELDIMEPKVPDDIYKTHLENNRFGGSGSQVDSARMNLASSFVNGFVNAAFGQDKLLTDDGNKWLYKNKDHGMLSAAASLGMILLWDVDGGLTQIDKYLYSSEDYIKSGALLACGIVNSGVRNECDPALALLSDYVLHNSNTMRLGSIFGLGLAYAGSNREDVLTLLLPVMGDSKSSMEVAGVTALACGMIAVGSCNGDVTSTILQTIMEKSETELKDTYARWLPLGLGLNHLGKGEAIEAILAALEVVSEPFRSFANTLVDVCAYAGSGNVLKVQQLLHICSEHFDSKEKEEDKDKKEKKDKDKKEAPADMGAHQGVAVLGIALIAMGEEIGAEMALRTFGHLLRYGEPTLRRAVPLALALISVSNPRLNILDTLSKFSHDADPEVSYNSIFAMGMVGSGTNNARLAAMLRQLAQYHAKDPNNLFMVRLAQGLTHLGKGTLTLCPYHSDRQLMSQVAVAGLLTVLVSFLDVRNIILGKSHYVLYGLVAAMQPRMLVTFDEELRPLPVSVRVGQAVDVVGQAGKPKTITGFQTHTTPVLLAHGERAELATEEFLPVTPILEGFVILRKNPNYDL
UniProt Q13177: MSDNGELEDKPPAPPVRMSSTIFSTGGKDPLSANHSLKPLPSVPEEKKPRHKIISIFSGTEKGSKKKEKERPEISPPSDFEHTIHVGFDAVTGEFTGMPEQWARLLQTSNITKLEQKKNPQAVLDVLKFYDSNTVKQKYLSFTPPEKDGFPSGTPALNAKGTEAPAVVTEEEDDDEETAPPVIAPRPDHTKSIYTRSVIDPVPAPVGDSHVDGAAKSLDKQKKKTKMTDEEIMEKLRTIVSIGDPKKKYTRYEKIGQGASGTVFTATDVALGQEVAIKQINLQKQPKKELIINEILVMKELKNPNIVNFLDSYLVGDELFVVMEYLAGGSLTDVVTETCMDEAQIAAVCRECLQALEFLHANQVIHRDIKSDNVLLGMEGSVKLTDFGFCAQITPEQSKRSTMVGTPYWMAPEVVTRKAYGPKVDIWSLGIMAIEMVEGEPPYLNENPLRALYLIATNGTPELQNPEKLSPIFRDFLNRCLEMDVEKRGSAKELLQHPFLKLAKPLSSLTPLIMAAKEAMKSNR
UniProt O00443: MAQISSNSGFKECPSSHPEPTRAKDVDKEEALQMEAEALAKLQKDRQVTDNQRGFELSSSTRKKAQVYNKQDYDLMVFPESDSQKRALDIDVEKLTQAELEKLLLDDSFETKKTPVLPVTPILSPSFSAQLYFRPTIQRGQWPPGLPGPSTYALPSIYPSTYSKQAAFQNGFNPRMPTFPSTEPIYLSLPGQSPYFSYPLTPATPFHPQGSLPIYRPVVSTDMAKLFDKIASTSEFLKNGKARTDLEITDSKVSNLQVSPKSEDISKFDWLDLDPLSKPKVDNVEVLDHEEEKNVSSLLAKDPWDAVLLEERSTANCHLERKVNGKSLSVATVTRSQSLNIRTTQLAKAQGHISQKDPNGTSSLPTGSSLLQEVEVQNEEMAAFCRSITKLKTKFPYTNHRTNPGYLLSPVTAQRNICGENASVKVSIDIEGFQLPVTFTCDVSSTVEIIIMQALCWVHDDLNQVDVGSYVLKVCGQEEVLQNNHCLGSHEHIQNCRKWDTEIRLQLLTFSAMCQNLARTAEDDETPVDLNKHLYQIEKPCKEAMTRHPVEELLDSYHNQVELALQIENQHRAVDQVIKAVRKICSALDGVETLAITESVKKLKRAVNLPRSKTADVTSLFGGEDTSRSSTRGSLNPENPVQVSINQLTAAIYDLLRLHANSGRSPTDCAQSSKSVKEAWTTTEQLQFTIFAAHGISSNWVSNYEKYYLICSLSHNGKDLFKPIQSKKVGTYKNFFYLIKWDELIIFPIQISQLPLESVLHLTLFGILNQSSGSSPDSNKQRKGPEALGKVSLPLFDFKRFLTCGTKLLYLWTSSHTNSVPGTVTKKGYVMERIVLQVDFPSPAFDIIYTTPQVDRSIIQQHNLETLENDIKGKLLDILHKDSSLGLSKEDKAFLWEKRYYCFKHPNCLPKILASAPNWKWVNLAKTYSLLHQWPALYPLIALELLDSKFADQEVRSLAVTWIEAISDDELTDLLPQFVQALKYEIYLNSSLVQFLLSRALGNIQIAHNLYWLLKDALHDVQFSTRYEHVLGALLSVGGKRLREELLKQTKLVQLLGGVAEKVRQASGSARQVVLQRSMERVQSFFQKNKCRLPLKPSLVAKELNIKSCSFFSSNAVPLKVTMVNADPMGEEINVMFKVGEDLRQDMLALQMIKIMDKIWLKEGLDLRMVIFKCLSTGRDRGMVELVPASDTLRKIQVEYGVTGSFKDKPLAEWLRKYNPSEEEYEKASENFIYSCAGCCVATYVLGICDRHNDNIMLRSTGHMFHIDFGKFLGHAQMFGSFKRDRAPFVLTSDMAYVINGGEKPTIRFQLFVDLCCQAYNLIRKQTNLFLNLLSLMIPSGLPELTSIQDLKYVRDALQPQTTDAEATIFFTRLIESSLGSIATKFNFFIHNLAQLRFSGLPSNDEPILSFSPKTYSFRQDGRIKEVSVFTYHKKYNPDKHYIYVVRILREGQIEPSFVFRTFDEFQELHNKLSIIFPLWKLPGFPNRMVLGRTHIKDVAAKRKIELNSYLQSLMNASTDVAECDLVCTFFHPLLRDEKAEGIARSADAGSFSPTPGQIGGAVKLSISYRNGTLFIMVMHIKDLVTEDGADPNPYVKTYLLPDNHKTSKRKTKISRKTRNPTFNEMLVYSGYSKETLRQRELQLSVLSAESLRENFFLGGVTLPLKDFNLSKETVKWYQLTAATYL

Tests used:
[1] = molecular target: T1, LZTR1-mini-TurboID-HA (LZTR1 fused to biotin ligase tagged with HA) (UniProt Q8N653); experiment: proximity labelling; LZTR1-TurboID or GFP-TurboID in melanoma cells with or without doxycycline; biotin for 24 h or for 2 and 18 h; streptavidin bead-bound proteins and whole cell lysates probed by Western blot
T1 sequence: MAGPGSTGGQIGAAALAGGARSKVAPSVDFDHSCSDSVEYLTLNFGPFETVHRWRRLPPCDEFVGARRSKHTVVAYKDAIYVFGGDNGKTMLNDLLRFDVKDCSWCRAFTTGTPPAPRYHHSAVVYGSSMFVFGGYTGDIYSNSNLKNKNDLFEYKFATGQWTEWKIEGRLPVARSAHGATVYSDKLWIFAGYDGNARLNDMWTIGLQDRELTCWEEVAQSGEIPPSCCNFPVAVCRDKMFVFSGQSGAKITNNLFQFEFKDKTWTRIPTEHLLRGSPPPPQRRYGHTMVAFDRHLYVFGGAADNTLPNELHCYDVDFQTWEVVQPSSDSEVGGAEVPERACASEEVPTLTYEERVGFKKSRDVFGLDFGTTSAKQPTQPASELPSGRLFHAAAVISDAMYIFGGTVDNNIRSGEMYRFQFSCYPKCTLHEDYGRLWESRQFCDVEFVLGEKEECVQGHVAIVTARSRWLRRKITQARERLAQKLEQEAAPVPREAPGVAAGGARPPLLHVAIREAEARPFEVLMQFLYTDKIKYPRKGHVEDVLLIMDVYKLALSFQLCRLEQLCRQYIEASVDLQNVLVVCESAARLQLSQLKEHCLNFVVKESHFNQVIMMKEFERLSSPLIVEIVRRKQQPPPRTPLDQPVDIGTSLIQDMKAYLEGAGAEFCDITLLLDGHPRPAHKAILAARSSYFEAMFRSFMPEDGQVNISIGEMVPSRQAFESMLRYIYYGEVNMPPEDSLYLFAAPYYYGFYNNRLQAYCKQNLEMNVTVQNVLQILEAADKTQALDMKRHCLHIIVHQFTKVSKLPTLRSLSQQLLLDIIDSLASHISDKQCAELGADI

[2] = molecular target: T1, LZTR1-mini-TurboID-HA (LZTR1 fused to biotin ligase tagged with HA); experiment: proximity labelling; LZTR1-miniTurbo-HA or GFP-TurboID (control) induced with doxycycline in YUHIMO, YUHEF and YUSIK melanoma cells; biotin 50 uM; streptavidin magnetic beads; in-gel trypsin digestion, LC-MS/MS with label-free quantitation; enriched over control at p < 0.05; three biological replicates
LZTR1-HA = molecular target: T2, LZTR1-HA (UniProt Q8N653); experiment: affinity purification with mass spectrometry; LZTR1-HA precipitated from YUHIMO lysates (doxycycline 200 ng/ml, 3 days) with anti-HA magnetic beads overnight in the cold; washed with TBS, 0.1% Tween-20; eluted with HA peptide; LC-MS; uninduced cells as control
T2 sequence: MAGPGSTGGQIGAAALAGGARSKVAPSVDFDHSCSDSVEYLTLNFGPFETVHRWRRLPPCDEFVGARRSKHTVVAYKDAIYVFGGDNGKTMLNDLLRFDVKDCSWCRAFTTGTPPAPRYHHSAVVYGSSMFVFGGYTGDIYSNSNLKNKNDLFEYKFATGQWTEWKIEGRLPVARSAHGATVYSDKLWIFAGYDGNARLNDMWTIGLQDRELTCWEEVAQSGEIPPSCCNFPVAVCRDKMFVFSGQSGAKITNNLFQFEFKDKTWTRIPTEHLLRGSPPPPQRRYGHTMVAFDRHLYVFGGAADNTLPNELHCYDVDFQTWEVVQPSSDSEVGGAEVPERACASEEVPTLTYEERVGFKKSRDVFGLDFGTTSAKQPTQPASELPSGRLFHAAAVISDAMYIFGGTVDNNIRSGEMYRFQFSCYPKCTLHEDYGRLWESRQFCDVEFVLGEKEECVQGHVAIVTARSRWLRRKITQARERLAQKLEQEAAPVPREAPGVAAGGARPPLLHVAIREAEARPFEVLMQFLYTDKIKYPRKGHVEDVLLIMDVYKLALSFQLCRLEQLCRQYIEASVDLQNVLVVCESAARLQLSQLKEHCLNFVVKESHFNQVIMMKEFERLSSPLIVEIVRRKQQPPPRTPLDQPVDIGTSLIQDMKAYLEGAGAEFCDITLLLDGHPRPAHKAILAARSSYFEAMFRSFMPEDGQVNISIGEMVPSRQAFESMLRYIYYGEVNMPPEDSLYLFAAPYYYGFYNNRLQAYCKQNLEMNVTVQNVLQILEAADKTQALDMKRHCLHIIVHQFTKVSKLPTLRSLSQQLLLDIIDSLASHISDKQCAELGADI

[3] = molecular target: T1, LZTR1-mini-TurboID-HA (LZTR1 fused to biotin ligase tagged with HA); experiment: proximity labelling; LZTR1-miniTurbo-HA or GFP-TurboID (control) induced with doxycycline in YUHIMO, YUHEF and YUSIK melanoma cells; biotin 50 uM; streptavidin magnetic beads; in-gel trypsin digestion, LC-MS/MS with label-free quantitation; enriched over control at p < 0.05; three biological replicates; remark: listed apart in the source

Molecule: BIRC6 (ubiquitin conjugating enzyme) (from UniProt Q9NR09 1-4857)
- binding [1]: binds
- binding [2]: binds

Molecule: NEDD4 (E3 ubiquitin ligase) (from UniProt P46934 1-1319)
- binding [1]: binds
- binding [2]: binds

Molecule: USP9X (from UniProt Q93008 1-2554)
- binding [1]: binds

Molecule: Ubiquitin-Specific Protease USP24 (from UniProt Q9UPU5 1-2620)
- binding [2]: binds

Molecule: myosin IIa (MYH9) (from UniProt P35579 1-1960)
- binding (LZTR1-HA): binds

Molecule: sequestosome 1 (SQSTM1/p62) (from UniProt Q13501 1-440)
- binding [1]: binds
- binding [2]: binds
- binding (LZTR1-HA): binds

Next, values leading:

- binding [1]: binds
- binding [2]: binds
Molecule: ARF-GTPase-activating protein GIT1 (from UniProt Q9Y2X7 1-761)

- binding [1]: binds
- binding [2]: binds
Molecule: ATG3 (E2 ubiquitin-like conjugating enzyme) (from UniProt Q9NT62 1-314)

- binding (LZTR1-HA): binds
Molecule: BAG3 (from UniProt O95817 1-575)

- binding (LZTR1-HA): binds
Molecule: BAG6 (from UniProt P46379 1-1132)

- binding (LZTR1-HA): binds
Molecule: CUL4B (from UniProt Q13620 1-913)

- binding (LZTR1-HA): binds
Molecule: PSMD2 (proteasome 26S subunit ubiquitin receptor, non-ATPase 2) (from UniProt Q13200 1-908)

- binding [1]: binds
- binding [2]: binds
Molecule: p21 (RAC1) activated kinase 2 PAK2 (from UniProt Q13177 1-524)

- binding [1]: binds
Molecule: phosphatidylinositol-4-phosphate 3-kinase catalytic subunit type 2 alpha (PIK3C2A) (from UniProt O00443 1-1686)

- binding [3]: binds
B1: Ubiquitin-Specific Protease USP15 (protein, UniProt Q9Y4E8 1-981)
chain: MAEGGAADLDTQRSDIATLLKTSLRKGDTWYLVDSRWFKQWKKYVGFDSWDKYQMGDQNVYPGPIDNSGLLKDGDAQSLKEHLIDELDYILLPTEGWNKLVSWYTLMEGQEPIARKVVEQGMFVKHCKVEVYLTELKLCENGNMNNVVTRRFSKADTIDTIEKEIRKIFSIPDEKETRLWNKYMSNTFEPLNKPDSTIQDAGLYQGQVLVIEQKNEDGTWPRGPSTPKSPGASNFSTLPKISPSSLSNNYNNMNNRNVKNSNYCLPSYTAYKNYDYSEPGRNNEQPGLCGLSNLGNTCFMNSAIQCLSNTPPLTEYFLNDKYQEELNFDNPLGMRGEIAKSYAELIKQMWSGKFSYVTPRAFKTQVGRFAPQFSGYQQQDCQELLAFLLDGLHEDLNRIRKKPYIQLKDADGRPDKVVAEEAWENHLKRNDSIIVDIFHGLFKSTLVCPECAKISVTFDPFCYLTLPLPMKKERTLEVYLVRMDPLTKPMQYKVVVPKIGNILDLCTALSALSGIPADKMIVTDIYNHRFHRIFAMDENLSSIMERDDIYVFEININRTEDTEHVIIPVCLREKFRHSSYTHHTGSSLFGQPFLMAVPRNNTEDKLYNLLLLRMCRYVKISTETEETEGSLHCCKDQNINGNGPNGIHEEGSPSEMETDEPDDESSQDQELPSENENSQSEDSVGGDNDSENGLCTEDTCKGQLTGHKKRLFTFQFNNLGNTDINYIKDDTRHIRFDDRQLRLDERSFLALDWDPDLKKRYFDENAAEDFEKHESVEYKPPKKPFVKLKDCIELFTTKEKLGAEDPWYCPNCKEHQQATKKLDLWSLPPVLVVHLKRFSYSRYMRDKLDTLVDFPINDLDMSEFLINPNAGPCRYNLIAVSNHYGGMGGGHYTAFAKNKDDGKWYYFDDSSVSTASEDQIVSKAAYVLFYQRQDTFSGTGFFPLDRETKGASAATGIPLESDEDSNDNDNDIENENCMHTN
